# Experimental data reported in the supplement of paper PMC4604168 (melanoma cell lines).
# This is one part of the list. Many values rest on one well or one pass, so single values are uncertain.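 Imaging used 1,536-well plates; nuclei positive for cleaved PARP by antibody were divided by total DNA-stained nuclei to yield the apoptosis fraction. Doses for screening kept most cells viable, and cell lines differ markedly in resting and induced cleaved-PARP levels.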
# Columns and labels:
# Assay in all cases: cleaved PARP positive nuclei fraction relative to DMSO control; melanoma cells; higher = more apoptosis
# Settings in all cases: library dose: low library concentration; 72 h
# [1] = test system: MZ2-MEL
# [2] = test system: MeWo
# [3] = test system: RPMI7951
# [4] = test system: RVH-421
# [5] = test system: SkMel28
# [6] = test system: SkMel2
# [7] = test system: SkMel30
# [8] = test system: SkMel5
# [9] = test system: UACC257
# [10] = test system: UACC62
smiles,measurement,setting,value
"N#CC[C@H](C1CCCC1)n1cc(-c2ncnc3[nH]ccc23)cn1 [ruxolitinib] + O=C(Oc1ccc([N+](=O)[O-])cc1)N1CCC(C(O)(c2ccc3c(c2)OCO3)c2ccc3c(c2)OCO3)CC1 [JZL184] (first compound 1 µM, partner dose 1 µM)",cleaved PARP positive nuclei fraction,[1],134%
same,cleaved PARP positive nuclei fraction,[2],88.9%
same,cleaved PARP positive nuclei fraction,[3],86.8%
same,cleaved PARP positive nuclei fraction,[4],98.4%
same,cleaved PARP positive nuclei fraction,[5],98.6%
same,cleaved PARP positive nuclei fraction,[6],155%
same,cleaved PARP positive nuclei fraction,[7],316%
same,cleaved PARP positive nuclei fraction,[8],341%
same,cleaved PARP positive nuclei fraction,[9],38.8%
same,cleaved PARP positive nuclei fraction,[10],71.3%
"COc1ccc(C2=N[C@@H](c3ccc(Cl)cc3)[C@@H](c3ccc(Cl)cc3)N2C(=O)N2CCNC(=O)C2)c(OC(C)C)c1 [Nutlin-3] + C/C(O)=C(\C#N)C(=O)Nc1cc(Br)ccc1Br [LFM-A13] (first compound 0.1 µM, partner dose 2 µM)",cleaved PARP positive nuclei fraction,[1],127%
same,cleaved PARP positive nuclei fraction,[2],75.8%
same,cleaved PARP positive nuclei fraction,[3],137%
same,cleaved PARP positive nuclei fraction,[4],161%
same,cleaved PARP positive nuclei fraction,[5],131%
same,cleaved PARP positive nuclei fraction,[6],92.9%
same,cleaved PARP positive nuclei fraction,[7],46.7%
same,cleaved PARP positive nuclei fraction,[8],87.1%
same,cleaved PARP positive nuclei fraction,[9],134%
same,cleaved PARP positive nuclei fraction,[10],241%
"C[As](C)SC[C@H](NC(=O)CC[C@H](N)C(=O)O)C(=O)NCC(=O)O [Darinaparsin] + O=C(CCCCCCC(=O)Nc1ccccc1)NO [vorinostat] (first compound 0.4 µM, partner dose 0.08 µM)",cleaved PARP positive nuclei fraction,[1],52.6%
same,cleaved PARP positive nuclei fraction,[2],157%
same,cleaved PARP positive nuclei fraction,[3],89.7%
same,cleaved PARP positive nuclei fraction,[4],184%
same,cleaved PARP positive nuclei fraction,[5],177%
same,cleaved PARP positive nuclei fraction,[6],218%
same,cleaved PARP positive nuclei fraction,[7],54.3%
same,cleaved PARP positive nuclei fraction,[8],65%
same,cleaved PARP positive nuclei fraction,[9],23.7%
same,cleaved PARP positive nuclei fraction,[10],99.2%
"O=c1[nH]nc(Sc2ncc([N+](=O)[O-])s2)n1-c1ccc2c(c1)OCCO2 + O=C(Oc1ccc([N+](=O)[O-])cc1)N1CCC(C(O)(c2ccc3c(c2)OCO3)c2ccc3c(c2)OCO3)CC1 [JZL184] (first compound 0.2 µM, partner dose 1 µM)",cleaved PARP positive nuclei fraction,[1],125%
same,cleaved PARP positive nuclei fraction,[2],50.5%
same,cleaved PARP positive nuclei fraction,[3],111%
same,cleaved PARP positive nuclei fraction,[4],50.3%
same,cleaved PARP positive nuclei fraction,[5],138%
same,cleaved PARP positive nuclei fraction,[6],136%
same,cleaved PARP positive nuclei fraction,[7],28.1%
same,cleaved PARP positive nuclei fraction,[8],75.1%
same,cleaved PARP positive nuclei fraction,[9],99.3%
same,cleaved PARP positive nuclei fraction,[10],123%
"Cn1cc(C2=C(c3cn(C4CCN(Cc5ccccn5)CC4)c4ccccc34)C(=O)NC2=O)c2ccccc21 [Enzastaurin] + O=C(O)C(=O)Nc1sc2c(c1C(=O)O)CCNC2 [TCS401] (first compound 0.8 µM, partner dose 1.66667 µM)",cleaved PARP positive nuclei fraction,[1],85.4%
same,cleaved PARP positive nuclei fraction,[2],54.5%
same,cleaved PARP positive nuclei fraction,[3],77.1%
same,cleaved PARP positive nuclei fraction,[4],18.7%
same,cleaved PARP positive nuclei fraction,[5],147%
same,cleaved PARP positive nuclei fraction,[6],54.9%
same,cleaved PARP positive nuclei fraction,[7],163%
same,cleaved PARP positive nuclei fraction,[8],76.4%
same,cleaved PARP positive nuclei fraction,[9],439%
same,cleaved PARP positive nuclei fraction,[10],251%
"N.N.[Cl][Pt][Cl] [cisplatin] + Cc1cc([N+](=O)[O-])ccc1NS(=O)(=O)c1cc(Cl)ccc1Cl [FH535] (first compound 1.6 µM, partner dose 1 µM)",cleaved PARP positive nuclei fraction,[1],165%
same,cleaved PARP positive nuclei fraction,[2],204%
same,cleaved PARP positive nuclei fraction,[3],72%
same,cleaved PARP positive nuclei fraction,[4],72.9%
same,cleaved PARP positive nuclei fraction,[5],113%
same,cleaved PARP positive nuclei fraction,[6],89.7%
same,cleaved PARP positive nuclei fraction,[7],32.5%
same,cleaved PARP positive nuclei fraction,[8],81.9%
same,cleaved PARP positive nuclei fraction,[9],48%
same,cleaved PARP positive nuclei fraction,[10],141%
"NC1(c2ccc(-c3nc4ccn5c(=O)[nH]nc5c4cc3-c3ccccc3)cc2)CCC1 + C/C(O)=C(\C#N)C(=O)Nc1cc(Br)ccc1Br [LFM-A13] (first compound 0.4 µM, partner dose 2 µM)",cleaved PARP positive nuclei fraction,[1],73.4%
same,cleaved PARP positive nuclei fraction,[2],43.4%
same,cleaved PARP positive nuclei fraction,[3],91.3%
same,cleaved PARP positive nuclei fraction,[4],91.9%
same,cleaved PARP positive nuclei fraction,[5],536%
same,cleaved PARP positive nuclei fraction,[6],73.6%
same,cleaved PARP positive nuclei fraction,[7],120%
same,cleaved PARP positive nuclei fraction,[8],73.5%
same,cleaved PARP positive nuclei fraction,[9],306%
same,cleaved PARP positive nuclei fraction,[10],129%
"N.N.[Cl][Pt][Cl] [cisplatin] + O=C(O)C(=O)Nc1sc2c(c1C(=O)O)CCNC2 [TCS401] (first compound 1.6 µM, partner dose 1.66667 µM)",cleaved PARP positive nuclei fraction,[1],402%
same,cleaved PARP positive nuclei fraction,[2],113%
same,cleaved PARP positive nuclei fraction,[3],34.7%
same,cleaved PARP positive nuclei fraction,[4],204%
same,cleaved PARP positive nuclei fraction,[5],161%
same,cleaved PARP positive nuclei fraction,[6],210%
same,cleaved PARP positive nuclei fraction,[7],211%
same,cleaved PARP positive nuclei fraction,[8],82.1%
same,cleaved PARP positive nuclei fraction,[9],89.3%
same,cleaved PARP positive nuclei fraction,[10],307%
"Cn1cnc2c(F)c(Nc3ccc(Br)cc3Cl)c(C(=O)NOCCO)cc21 [selumetinib] + Cc1cc(SCc2sc(-c3ccc(C(F)(F)F)c(F)c3)nc2C)ccc1OCC(=O)O [GW0742] (first compound 0.015 µM, partner dose 2 µM)",cleaved PARP positive nuclei fraction,[1],216%
same,cleaved PARP positive nuclei fraction,[2],291%
same,cleaved PARP positive nuclei fraction,[3],60.6%
same,cleaved PARP positive nuclei fraction,[4],120%
same,cleaved PARP positive nuclei fraction,[5],278%
same,cleaved PARP positive nuclei fraction,[6],165%
same,cleaved PARP positive nuclei fraction,[7],58.6%
same,cleaved PARP positive nuclei fraction,[8],137%
same,cleaved PARP positive nuclei fraction,[9],116%
same,cleaved PARP positive nuclei fraction,[10],172%
"Cn1cc(C2=C(c3cn(C4CCN(Cc5ccccn5)CC4)c4ccccc34)C(=O)NC2=O)c2ccccc21 [Enzastaurin] + O=C(O)c1ccc(-c2c[nH]c3ncc(-c4ccccc4)cc23)cc1C1CCCC1 [GSK650394] (first compound 0.8 µM, partner dose 0.16 µM)",cleaved PARP positive nuclei fraction,[1],88.7%
same,cleaved PARP positive nuclei fraction,[2],87.6%
same,cleaved PARP positive nuclei fraction,[3],231%
same,cleaved PARP positive nuclei fraction,[4],273%
same,cleaved PARP positive nuclei fraction,[5],612%
same,cleaved PARP positive nuclei fraction,[6],79%
same,cleaved PARP positive nuclei fraction,[7],18.1%
same,cleaved PARP positive nuclei fraction,[8],97.3%
same,cleaved PARP positive nuclei fraction,[9],113%
same,cleaved PARP positive nuclei fraction,[10],268%

# In a second layout: results already given
smiles | measurement | setting | value
O=c1[nH]nc(Sc2ncc([N+](=O)[O-])s2)n1-c1ccc2c(c1)OCCO2 + O=C(Oc1ccc([N+](=O)[O-])cc1)N1CCC(C(O)(c2ccc3c(c2)OCO3)c2ccc3c(c2)OCO3)CC1 [JZL184] (first compound 0.2 µM, partner dose 1 µM) | cleaved PARP positive nuclei fraction | [6] | 136%
N.N.[Cl][Pt][Cl] [cisplatin] + O=C(O)C(=O)Nc1sc2c(c1C(=O)O)CCNC2 [TCS401] (first compound 1.6 µM, partner dose 1.66667 µM) | cleaved PARP positive nuclei fraction | [4] | 204%
Cn1cc(C2=C(c3cn(C4CCN(Cc5ccccn5)CC4)c4ccccc34)C(=O)NC2=O)c2ccccc21 [Enzastaurin] + O=C(O)c1ccc(-c2c[nH]c3ncc(-c4ccccc4)cc23)cc1C1CCCC1 [GSK650394] (first compound 0.8 µM, partner dose 0.16 µM) | cleaved PARP positive nuclei fraction | [8] | 97.3%
